Test results taken from the supplement of paper PMC8551327.
The other results are listed elsewhere or left out. No stated cut-off is given here; in the data, active = 1.25 or more and inactive = the rest. Many values rest on one well or one pass, so single values are uncertain.

Tested on: Kcc2-LUC knock-in mouse primary cortical neurons (Kcc2 promoter reporter)
Assay: Kcc2 promoter-driven luciferase activity relative to vehicle control (fold of vehicle (ratio)); higher = stronger Kcc2 promoter activation (Kcc2 expression enhancer)
Conditions: 100 nM; 48 h

SMILES	Kcc2 promoter-driven luciferase activity
COc1cc([C@H]2c3cc4c(cc3C[C@@H]3COC(=O)[C@H]32)OCO4)cc(OC)c1OC [Deoxypodophyllotoxin; Anthricin]	inactive: 0.92
C[n+]1cc2cc(O)c(O)cc2c2ccc3cc(O)c(O)cc3c21.c1ccncc1	inactive: 0.83
CC[C@](C)(O)C(=O)O[C@H]1C(=O)O[C@@H]2C[C@H]3C(C)=C[C@H](O)[C@@H](O)[C@]3(C)[C@H]3[C@@]4(O)OC[C@]32[C@@H]1[C@@H](C)[C@H]4O	inactive: 0.666
CCCCC[C@@H](O)[C@H]1C(=O)O[C@H](C)[C@@H](O)/C=C/C=C/C=C/C=C/C=C(\C)[C@@H](O)[C@H](O)[C@H](O)C[C@H](O)C[C@H](O)C[C@H](O)C[C@H](O)C[C@@H]1O [Lagosin]	inactive: 0.91
CO[C@H]1[C@@H](O)[C@@H](C)O[C@H](O[C@H]2[C@H](Oc3cccc4c(O)c5c(=O)oc6ccc(C)c7c(=O)oc(c34)c5c67)O[C@H](C)[C@H](O)[C@@H]2O)[C@@H]1O	inactive: 1.11
CC1=C[C@H](O)[C@@H](O)[C@]2(C)[C@H]3[C@@]4(O)OC[C@]35[C@H]([C@@H](C)[C@H]4O)[C@@H](O)C(=O)O[C@@H]5C[C@@H]12	inactive: 0.8
COc1ccc(-c2c(C)c(C(=O)O)nc(-c3ccc4c(O)c(OC)c5c(c4n3)=NC(C)(C)N=5)c2N)c(O)c1OC [Imidazoquinoline]	inactive: 1.13
C[C@H]1C(=O)O[C@@H]2CCN3CC=C(COC(=O)[C@](C)(O)[C@]1(C)O)[C@H]23 [Monocrotalin]	inactive: 0.49
Cc1cc(N(CC(C)Br)CC(C)Br)ccc1N=Nc1ccccc1C(=O)O (stereo not drawn) [Azobenzene, 4-bis(2-bromopropyl)amino-2'-carboxy-2-methyl-]	inactive: 1.24
CC(C)C1(NC(=O)C2CC3c4cccc5[nH]cc(c45)CC3N(C)C2)OC2(O)C3CCCN3C(=O)C(Cc3ccccc3)N2C1=O (stereo not drawn) [Nehydrin]	inactive: 0.86
CC(C)C(NC(=O)C(C(C)C)N(C)C)C(=O)N(C)C(C(=O)N1CCCC1C(=O)N1CCCC1C(=O)NCc1ccccc1)C(C)C (stereo not drawn)	inactive: 0.83
COC1=C[C@]23CCCN2CCc2cc4c(cc2[C@@H]3[C@@H]1O)OCO4 [Cephalotaxine]	inactive: 1.03
CN(C)[C@@H]1C(=O)C(C(N)=O)=C(O)[C@@]2(O)C(=O)C3=C(O)c4c(O)ccc(Cl)c4[C@@](C)(O)[C@H]3C[C@@H]12 [Aureomycin]	inactive: 1
CNC(=O)ON(C(C)=O)C(=O)NC [Caracemide]	inactive: 1.11
C[C@H](N)C(=O)N[C@@H]1[C@H]2C(=C(O)C[C@@H](O)[C@@H]2O)C(=O)O[C@]1(C)C(Cl)Cl [Bactobolin]	inactive: 0.68
COc1ccc(C[C@H]2NC[C@H](O)[C@H]2OC(C)=O)cc1 [Anisomycin]	active: 1.76
CC[C@@]1(O)C(=O)OCc2c1cc1n(c2=O)Cc2cc3ccccc3nc2-1 [Camptothecin]	inactive: 1
CC[C@](C)(O)C(=O)O[C@H]1C(=O)O[C@@H]2C[C@H]3C(C)=C[C@H](O)[C@@H](O)[C@]3(C)[C@H]3[C@]4(O)OC[C@]32[C@@H]1[C@@H](C)[C@H]4O [GLAUCARUBIN; Simarubaceae]	inactive: 0.845
C=C1C(=O)O[C@@H]2C[C@@H](C)[C@@H]3C=CC(=O)[C@@]3(C)[C@@H](O)[C@H]12 [Helenalin]	inactive: 1.13
COc1ccc2c(c1O)[C@]13CCN(C)[C@H](C2)[C@@H]1CCC(=O)C3 [Dihydrothebainone]	inactive: 0.47
CO[C@@H]1[C@H](O)C[C@@H](O[C@@H]2C[C@H](Oc3cc4cc5c(c(O)c4c(O)c3C)C(=O)[C@@H](O[C@H]3C[C@@H](O[C@H]4C[C@@H](O[C@H]6C[C@](C)(O)[C@@H](OC(C)=O)[C@H](C)O6)[C@H](O)[C@@H](C)O4)[C@H](O)[C@@H](C)O3)[C@H]([C@H](OC)C(=O)[C@@H](O)[C@@H](C)O)C5)O[C@H](C)[C@@H]2OC(C)=O)O[C@@H]1C [Chromomycin a3]	inactive: 0.61
CCC(=O)OC1CCn2c1nc1c2C(=O)C(C)=C(N2CC2)C1=O (stereo not drawn)	inactive: 0.91
[Cl][Hg][c]1ccc2ccccc2c1 [Chloro(naphthalen-2-yl)mercury]	inactive: 1.08

Retrieved one by one from above (2):
SMILES	Kcc2 promoter-driven luciferase activity
CNC(=O)ON(C(C)=O)C(=O)NC [Caracemide]	inactive: 1.11
C=C1C(=O)O[C@@H]2C[C@@H](C)[C@@H]3C=CC(=O)[C@@]3(C)[C@@H](O)[C@H]12 [Helenalin]	inactive: 1.13
